Test results published in US20250283871A1, “COMPOSITIONS AND METHODS FOR MODULATING THE INTERACTION BETWEEN SS18-SSX FUSION ONCOPROTEIN AND NUCLEOSOMES” (Dana-Farber Cancer Institute, Inc., priority 2020, published 2025).

System: BAF complex subunits and histone proteins
Assay: Mass spectrometry proteomics of purified HA-SS18 WT and HA-SS18-SSX1 complexes (Tables 5A-5E)
Parameters: species or system human
Conditions: for Total / Unique: HA-SS18SSX1_CHR_peptides; for Total: total peptides of the identified protein; for Unique: unique peptides of the identified protein
[1] = HA-SS18SSX1 purification, NE (soluble nuclear extract) fraction, HEK-293T, peptides per identified protein
[2] = HA-SS18WT_CHR_peptides: protein identified in HA-SS18 WT BAF complex purification from nuclease-treated solubilized chromatin (CHR), HEK-293T
[3] = HA-SS18WT_NE_peptides: HA-SS18 WT complexes purified from nuclear extract (NE), HEK-293T, label = protein identified (Gene Symbol)
[4] = HA-SS18SSX1_NE_peptides: protein co-purified with HA-SS18-SSX1 BAF complexes from soluble nuclear extract (NE), HEK-293T cells
[5] = HA-SS18WT_NE_peptides: proteins co-purified with HA-SS18 WT from nuclear extract (NE), HEK-293T

Molecule | Total | Unique | Total (total peptides) [1] | Unique (unique peptides) [1] | Total (total peptides) [2] | Unique (unique peptides) [2] | Total (peptides) [3] | Unique (peptides) [3] | Total (peptides) [4] | Unique (peptides) [4] | Total (peptides) [5] | Unique (peptides) [5]
SLC25A5 (protein, UniProt P05141 1-298, looked up) ADP/ATP translocase 2: MTDAAVSFAKDFLAGGVAAAISKTAVAPIERVKLLLQVQHASKQITADKQYKGIIDCVVRIPKEQGVLSFWRGNLANVIRYFPTQALNFAFKDKYKQIFLGGVDKRTQFWLYFAGNLASGGAAGATSLCFVYPLDFARTRLAADVGKAGAEREFRGLGDCLVKIYKSDGIKGLYQGFNVSVQGIIIYRAAYFGIYDTAKGMLPDPKNTHIVISWMIAQTVTAVAGLTSYPFDTVRRRMMMQSGRKGTDIMYTGTLDCWRKIARDEGGKAFFKGAWSNVLRGMGGAFVLVLYDEIKKYT | 2 | 2 | 12 | 2 | 2 | 2 | 8 | 3 | – | – | – | –
ZNF687 (protein, UniProt Q8N1G0 1-1237, looked up) Zinc finger protein 687: MGDMKTPDFDDLLAAFDIPDIDANEAIHSGPEENEGPGGPGKPEPGVGSESEDTAAASAGDGPGVPAQASDHGLPPPDISVVSVIVKNTVCPEQSEALAGGSAGDGAQAAGVTKEGPVGPHRMQNGFGSPEPSLPGTPHSPAPPSGGTWKEKGMEGKTPLDLFAHFGPEPGDHSDPLPPSAPSPTREGALTPPPFPSSFELAQENGPGMQPPVSSPPLGALKQESCSPHHPQVLAQQGSGSSPKATDIPASASPPPVAGVPFFKQSPGHQSPLASPKVPVCQPLKEEDDDEGPVDKSSPGSPQSPSSGAEAADEDSNDSPASSSSRPLKVRIKTIKTSCGNITRTVTQVPSDPDPPAPLAEGAFLAEASLLKLSPATPTSEGPKVVSVQLGDGTRLKGTVLPVATIQNASTAMLMAASVARKAVVLPGGTATSPKMIAKNVLGLVPQALPKADGRAGLGTGGQKVNGASVVMVQPSKTATGPSTGGGTVISRTQSSLVEAFNKILNSKNLLPAYRPNLSPPAEAGLALPPTGYRCLECGDAFSLEKSLARHYDRRSMRIEVTCNHCARRLVFFNKCSLLLHAREHKDKGLVMQCSHLVMRPVALDQMVGQPDITPLLPVAVPPVSGPLALPALGKGEGAITSSAITTVAAEAPVLPLSTEPPAAPATSAYTCFRCLECKEQCRDKAGMAAHFQQLGPPAPGATSNVCPTCPMMLPNRCSFSAHQRMHKNRPPHVCPECGGNFLQANFQTHLREACLHVSRRVGYRCPSCSVVFGGVNSIKSHIQTSHCEVFHKCPICPMAFKSGPSAHAHLYSQHPSFQTQQAKLIYKCAMCDTVFTHKPLLSSHFDQHLLPQRVSVFKCPSCPLLFAQKRTMLEHLKNTHQSGRLEETAGKGAGGALLTPKTEPEELAVSQGGAAPATEESSSSSEEEEVPSSPEPPRPAKRPRRELGSKGLKGGGGGPGGWTCGLCHSWFPERDEYVAHMKKEHGKSVKKFPCRLCERSFCSAPSLRRHVRVNHEGIKRVYPCRYCTEGKRTFSSRLILEKHVQVRHGLQLGAQSPGRGTTLARGSSARAQGPGRKRRQSSDSCSEEPDSTTPPAKSPRGGPGSGGHGPLRYRSSSSTEQSLMMGLRVEDGAQQCLDCGLCFASPGSLSRHRFISHKKRRGVGKASALGLGDGEEEAPPSRSDPDGGDSPLPASGGPLTCKVCGKSCDSPLNLKTHFRTHGMAFIRARQGAVGDN | 2 | 2 | – | – | 1 | 1 | – | – | – | – | – | –
BANF1 (protein, UniProt O75531 1-89, looked up) Barrier-to-autointegration …: MTTSQKHRDFVAEPMGEKPVGSLAGIGEVLGKKLEERGFDKAYVVLGQFLVLKKDEDLFREWLKDTCGANAKQSRDCFGCLREWCDAFL | 2 | 2 | – | – | – | – | – | – | 1 | 1 | – | –
PPIG (protein, UniProt Q13427 1-754, looked up) Peptidyl-prolyl cis-trans …: MGIKVQRPRCFFDIAINNQPAGRVVFELFSDVCPKTCENFRCLCTGEKGTGKSTQKPLHYKSCLFHRVVKDFMVQGGDFSEGNGRGGESIYGGFFEDESFAVKHNKEFLLSMANRGKDTNGSQFFITTKPTPHLDGHHVVFGQVISGQEVVREIENQKTDAASKPFAEVRILSCGELIPKSKVKKEEKKRHKSSSSSSSSSSDSDSSSDSQSSSDSSDSESATEEKSKKRKKKHRKNSRKHKKEKKKRKKSKKSASSESEAENLEAQPQSTVRPEEIPPIPENRFLMRKSPPKADEKERKNRERERERECNPPNSQPASYQRRLLVTRSGRKIKGRGPRRYRTPSRSRSRDRFRRSETPPHWRQEMQRAQRMRVSSGERWIKGDKSELNEIKENQRSPVRVKERKITDHRNVSESPNRKNEKEKKVKDHKSNSKERDIRRNSEKDDKYKNKVKKRAKSKSRSKSKEKSKSKERDSKHNRNEEKRMRSRSKGRDHENVKEKEKQSDSKGKDQERSRSKEKSKQLESKSNEHDHSKSKEKDRRAQSRSRECDITKGKHSYNSRTRERSRSRDRSRRVRSRTHDRDRSRSKEYHRYREQEYRRRGRSRSRERRTPPGRSRSKDRRRRRRDSRSSEREESQSRNKDKYRNQESKSSHRKENSESEKRMYSKSRDHNSSNNSREKKADRDQSPFSKIKQSSQDNELKSSMLKNKEDEKIRSSVEKENQKSKGQENDHVHEKNKKFDHESSPGTDEDKSG | 2 | 2 | – | – | – | – | – | – | – | – | – | –
CLASRP (protein, UniProt Q8N2M8 1-674, looked up) CLK4-associating …: MWHEARKHERKLRGMMVDYKKRAERRREYYEKIKKDPAQFLQVHGRACKVHLDSAVALAAESPVNMMPWQGDTNNMIDRFDVRAHLDHIPDYTPPLLTTISPEQESDERKCNYERYRGLVQNDFAGISEEQCLYQIYIDELYGGLQRPSEDEKKKLAEKKASIGYTYEDSTVAEVEKAAEKPEEEESAAEEESNSDEDEVIPDIDVEVDVDELNQEQVADLNKQATTYGMADGDFVRMLRKDKEEAEAIKHAKALEEEKAMYSGRRSRRQRREFREKRLRGRKISPPSYARRDSPTYDPYKRSPSESSSESRSRSRSPTPGREEKITFITSFGGSDEEAAAAAAAAAASGVTTGKPPAPPQPGGPAPGRNASARRRSSSSSSSSSASRTSSSRSSSRSSSRSRRGGGYYRSGRHARSRSRSWSRSRSRSRRYSRSRSRGRRHSGGGSRDGHRYSRSPARRGGYGPRRRSRSRSHSGDRYRRGGRGLRHHSSSRSRSSWSLSPSRSRSLTRSRSHSPSPSQSRSRSRSRSQSPSPSPAREKLTRPAASPAVGEKLKKTEPAAGKETGAAKPKLTPQEKLKLRMQKALNRQFKADKKAAQEKMIQQEHERQEREDELRAMARKIRMKERERREKEREEWERQYSRQSRSPSPRYSREYSSSRRRSRSRSRSPHYRH | 2 | 2 | – | – | 1 | 1 | – | – | – | – | – | –
DIMT1 (protein, UniProt Q9UNQ2 1-313, looked up) Dimethyladenosine transferase: MPKVKSGAIGRRRGRQEQRRELKSAGGLMFNTGIGQHILKNPLIINSIIDKAALRPTDVVLEVGPGTGNMTVKLLEKAKKVVACELDPRLVAELHKRVQGTPVASKLQVLVGDVLKTDLPFFDTCVANLPYQISSPFVFKLLLHRPFFRCAILMFQREFALRLVAKPGDKLYCRLSINTQLLARVDHLMKVGKNNFRPPPKVESSVVRIEPKNPPPPINFQEWDGLVRITFVRKNKTLSAAFKSSAVQQLLEKNYRIHCSVHNIIIPEDFSIADKIQQILTSTGFSDKRARSMDIDDFIRLLHGFNAEGIHFS | 2 | 2 | – | – | 2 | 2 | – | – | 1 | 1 | 2 | 2
PRPH (protein, UniProt P41219 1-470, looked up) Peripherin: MSHHPSGLRAGFSSTSYRRTFGPPPSLSPGAFSYSSSSRFSSSRLLGSASPSSSVRLGSFRSPRAGAGALLRLPSERLDFSMAEALNQEFLATRSNEKQELQELNDRFANFIEKVRFLEQQNAALRGELSQARGQEPARADQLCQQELRELRRELELLGRERDRVQVERDGLAEDLAALKQRLEEETRKREDAEHNLVLFRKDVDDATLSRLELERKIESLMDEIEFLKKLHEEELRDLQVSVESQQVQQVEVEATVKPELTAALRDIRAQYESIAAKNLQEAEEWYKSKYADLSDAANRNHEALRQAKQEMNESRRQIQSLTCEVDGLRGTNEALLRQLRELEEQFALEAGGYQAGAARLEEELRQLKEEMARHLREYQELLNVKMALDIEIATYRKLLEGEESRISVPVHSFASLNIKTTVPEVEPPQDSHSRKTVLIKTIETRNGEVVTESQKEQRSELDKSSAHSY | 2 | 2 | – | – | 1 | 1 | – | – | – | – | 1 | 1
NEFL (protein, UniProt P07196 2-543, looked up) Neurofilament light …: SSFSYEPYYSTSYKRRYVETPRVHISSVRSGYSTARSAYSSYSAPVSSSLSVRRSYSSSSGSLMPSLENLDLSQVAAISNDLKSIRTQEKAQLQDLNDRFASFIERVHELEQQNKVLEAELLVLRQKHSEPSRFRALYEQEIRDLRLAAEDATNEKQALQGEREGLEETLRNLQARYEEEVLSREDAEGRLMEARKGADEAALARAELEKRIDSLMDEISFLKKVHEEEIAELQAQIQYAQISVEMDVTKPDLSAALKDIRAQYEKLAAKNMQNAEEWFKSRFTVLTESAAKNTDAVRAAKDEVSESRRLLKAKTLEIEACRGMNEALEKQLQELEDKQNADISAMQDTINKLENELRTTKSEMARYLKEYQDLLNVKMALDIEIAAYRKLLEGEETRLSFTSVGSITSGYSQSSQVFGRSAYGGLQTSSYLMSTRSFPSYYTSHVQEEQIEVEETIEAAKAEEAKDEPPSEGEAEEEEKDKEEAEEEEAAEEEEAAKEESEEAKEEEEGGEGEEGEETKEAEEEEKKVEGAGEEQAAKKKD | 2 | 2 | – | – | – | – | – | – | – | – | – | –
